The source of these data is paper PMC4525147.

These are yes or no findings as the source states them, for the method shown. For some of these results: Binding can be weak; no strength is given.

Holding throughout (assay): far-Western, overlay or dot blot; blots of lysates of E. coli expressing His-tagged gp41 constructs probed with biotinylated dicalcin, dcp11 or dcp15; only the binder purified
Experiment [1] addresses His-tagged ZP-C domain of gp41 (Xenopus laevis).
Experiment [2] has as its target His-tagged full-length gp41 (Xenopus laevis).
Experiment [3] concerns the target His-Δ89C, truncated ZP-C domain of gp41 (Xenopus laevis).
The target of experiment [4] is His-Δ63N, truncated ZP-C domain of gp41 (Xenopus laevis).
Experiment [5] concerns the target His-Δ76C, truncated ZP-C domain of gp41 (Xenopus laevis).

B1: dcp11, dicalcin-derived peptide (peptide)
peptide: SFSCNQKNK
modifications: biotin
Turning to B1, the binding result in experiment [1] is recorded as “binds”; in experiment [2] it was “binds”; in experiment [3] it was “no binding”; in experiment [4], “no binding”; in experiment [5] it was “binds”.

B2: dcp15, dicalcin-derived peptide (peptide)
peptide: AALCKL
modifications: biotin
On to B2, for which the binding entry was “binds” in experiment [1]; “binds” in experiment [2]; “no binding” in experiment [3]; “no binding” in experiment [4]; “binds” in experiment [5].
